Source: the supplement of paper PMC6821926, “Diaminoquinazoline MMV675968 from Pathogen Box inhibits Acinetobacter baumannii growth through targeting of dihydrofolate reductase” (Scientific Reports, 2019)
± gives the uncertainty stated by the source. Some of the results follow.

test system: Acinetobacter baumannii Mahidol; experiment: percent growth relative to DMSO-treated control; higher = less growth inhibition; settings: 10 µM; 18 h

Row | SMILES | percent growth [%]
1 | COc1ccc(C2(C(=O)Nc3ccc(Br)cc3)CCCC2)cc1 | 92.1 ± 4
2 | CC(C)(C)OC(=O)N1CCN(c2nccc(-c3ccc(-c4ccc(Cl)cc4)s3)n2)CC1 | 105 ± 17
3 | Brc1cncc(-c2cc(NCCCn3ccnc3)nc(-c3ccccc3)n2)c1 | 79.1 ± 22
4 | CC(C)(C)OC(=O)N1CCN(c2cc(-c3ccc(Oc4ccccc4)cc3)n[nH]2)CC1 | 84.8 ± 5.5
5 | O=C(C1CCN(c2nnnn2-c2ccccc2)CC1)N1CCc2ccccc2C1 | 85.5 ± 5.5
6 | O=C(C1CCCCC1)N1CC(=O)N2CCc3ccccc3C2C1 (stereo not drawn) | 59.7 ± 29
7 | CC(=O)NCC1CN(c2ccc(-c3ccc(CO)cc3)c(F)c2)C(=O)O1 (stereo not drawn) | 88.1 ± 6.6
8 | CCCS(=O)(=O)N1CCC(CO)(Cc2ccccc2C(F)(F)F)CC1 | 93.2 ± 4.4
9 | NCCN(C(=O)c1ccc(Cl)cc1Cl)c1ccc(OCc2ccc(Cl)cc2)cc1 | 41.6 ± 110
10 | CO[C@@H](C(=O)N1Cc2[nH]nc(NC(=O)c3ccc(N4CCN(C)CC4)cc3)c2C1)c1ccccc1 | 64.1 ± 34
11 | O=C1Nc2ccc(Br)cc2C12NCCc1c2[nH]c2ccccc12 (stereo not drawn) | 84.9 ± 14
12 | COc1cccc(-c2nc3c(N4CCCC4)cccc3n2CC2CCCN2)n1 (stereo not drawn) | 89 ± 9.1
13 | CNC(=O)c1cc(S(=O)(=O)N2CCN(c3ccccn3)CC2)cs1 | 70.2 ± 19
14 | Cc1cccc(-c2nc(Nc3ccncn3)c3sccc3n2)n1 | 92.4 ± 3.1
15 | CC1(COc2ccc(N3CCC(Oc4ccc(OC(F)(F)F)cc4)CC3)cc2)Cn2cc([N+](=O)[O-])nc2O1 (stereo not drawn) | 69 ± 41
16 | O=C(Nc1nnc(-c2ccc(Cl)cc2)o1)c1cccc(C(F)(F)F)c1 | 62.9 ± 42
17 | Cc1ccc2[nH]c(C3CCCNC3)c(-c3ccncc3)c2c1 (stereo not drawn) | 106 ± 17
18 | CS(=O)(=O)c1ccc(C(=O)N(CC2CCCO2)c2nc3ccccc3s2)cc1[N+](=O)[O-] (stereo not drawn) | 143 ± 36
19 | COc1cccc(OCC(=O)c2ccc(Br)cc2)c1 | 104 ± 15
20 | CCN(CC)S(=O)(=O)c1ccc(Cl)c(C(=O)Nc2ccc3nc(C)sc3c2)c1 | 89.7 ± 24

Row | SMILES | percent growth [%]
21 | Cc1cc(C)c2cc(C(=O)NC3CCCCCCC3)[nH]c2c1 | 84.9 ± 25
22 | COc1ccc(-c2cncc3ccc(C(=O)NCCCn4ccnc4)nc23)cc1 | 97.7 ± 10
23 | Cc1[nH]c2ccccc2c1C(c1cccs1)N1CCN(C)CC1 (stereo not drawn) | 73.7 ± 49
24 | O=C(Nc1ccc2c(c1)B(O)OC2)c1ccccc1C(F)(F)F | 103 ± 13
25 | Nc1ncnc2c1c(Cc1cccc3ccccc13)nn2CC1CCNCC1 | 93.8 ± 5.8
26 | FC(F)(F)c1ccc(N(c2cccnc2)C2CCN(c3ccc(C(F)(F)F)cn3)CC2)cc1 | 96.5 ± 4
27 | CCCn1c(CNc2ccccc2O)nc2ccccc21 | 89.3 ± 26
28 | Cc1ccc(NC(=O)c2nc[nH]c2C(=O)Nc2nc3ccccc3[nH]2)c(C)c1 | 69.8 ± 22
29 | CC[C@@H]([C@H](C)O)n1ncn(-c2ccc(N3CCN(c4ccc(OC[C@@H]5CO[C@@](Cn6cncn6)(c6ccc(F)cc6F)C5)cc4)CC3)cc2)c1=O | 51.1 ± 27
30 | COc1ccc(C2CC(c3cccs3)=NN2C(=O)c2ccco2)cc1OC (stereo not drawn) | 98.3 ± 20
31 | COc1cc(NC(C)CCCN)c2ncccc2c1 (stereo not drawn) | 120 ± 22
32 | Cc1[nH]c2cc(F)cc(F)c2c(=O)c1-c1ccc(Oc2ccc(OC(F)(F)F)cc2)cc1 | 92.6 ± 5.3
33 | CCCCS(=O)(=O)Nc1ccc2cnn(C)c2c1 | 89.8 ± 8.6
34 | Cc1ccc2nc(Cl)c(CNCc3cccs3)cc2c1 | 80.9 ± 30
35 | Cc1cnc(N2CCN[C@@H](Cc3ccccc3)C2)nc1Oc1ccc(-n2ccnc2)cc1 | 95.5 ± 5.1
36 | c1ccc(Oc2ccc(-c3cc(C4CCOCC4)[nH]n3)cc2)cc1 | 92.3 ± 15
37 | CC(C)c1ncc(-c2ccncc2)c([C@H]2CC[C@H](CNC(=O)c3cccnc3)CC2)n1 | 59.9 ± 30
38 | CCOC(=O)c1c(NC(=O)c2c(F)c(F)c(F)c(F)c2F)sc(C(N)=O)c1C | 105 ± 15
39 | CC(C(=O)N1CCCC1)N1CCN(S(=O)(=O)c2ccc(C(C)(C)C)cc2)CC1 (stereo not drawn) | 77 ± 34

test system: Acinetobacter baumannii Naval-81; experiment: as above; settings: 10 µM; 18 h

Row | SMILES | percent growth [%]
40 | COc1ccc(C2(C(=O)Nc3ccc(Br)cc3)CCCC2)cc1 | 73.9 ± 9
41 | CC(C)(C)OC(=O)N1CCN(c2nccc(-c3ccc(-c4ccc(Cl)cc4)s3)n2)CC1 | 96 ± 5.6
42 | Brc1cncc(-c2cc(NCCCn3ccnc3)nc(-c3ccccc3)n2)c1 | 100 ± 29
43 | CC(C)(C)OC(=O)N1CCN(c2cc(-c3ccc(Oc4ccccc4)cc3)n[nH]2)CC1 | 109 ± 11
44 | O=C(C1CCN(c2nnnn2-c2ccccc2)CC1)N1CCc2ccccc2C1 | 96.1 ± 4.1
45 | O=C(C1CCCCC1)N1CC(=O)N2CCc3ccccc3C2C1 (stereo not drawn) | 114 ± 46
46 | CC(=O)NCC1CN(c2ccc(-c3ccc(CO)cc3)c(F)c2)C(=O)O1 (stereo not drawn) | 94.9 ± 12
47 | CCCS(=O)(=O)N1CCC(CO)(Cc2ccccc2C(F)(F)F)CC1 | 88.8 ± 8.9
48 | NCCN(C(=O)c1ccc(Cl)cc1Cl)c1ccc(OCc2ccc(Cl)cc2)cc1 | 101 ± 11
49 | CO[C@@H](C(=O)N1Cc2[nH]nc(NC(=O)c3ccc(N4CCN(C)CC4)cc3)c2C1)c1ccccc1 | 80.7 ± 11
50 | O=C1Nc2ccc(Br)cc2C12NCCc1c2[nH]c2ccccc12 (stereo not drawn) | 130 ± 52
51 | COc1cccc(-c2nc3c(N4CCCC4)cccc3n2CC2CCCN2)n1 (stereo not drawn) | 89.7 ± 17
52 | CNC(=O)c1cc(S(=O)(=O)N2CCN(c3ccccn3)CC2)cs1 | 103 ± 38
53 | Cc1cccc(-c2nc(Nc3ccncn3)c3sccc3n2)n1 | 82.6 ± 32
54 | CC1(COc2ccc(N3CCC(Oc4ccc(OC(F)(F)F)cc4)CC3)cc2)Cn2cc([N+](=O)[O-])nc2O1 (stereo not drawn) | 89.8 ± 37
55 | O=C(Nc1nnc(-c2ccc(Cl)cc2)o1)c1cccc(C(F)(F)F)c1 | 57.6 ± 23
56 | Cc1ccc2[nH]c(C3CCCNC3)c(-c3ccncc3)c2c1 (stereo not drawn) | 102 ± 19
57 | CS(=O)(=O)c1ccc(C(=O)N(CC2CCCO2)c2nc3ccccc3s2)cc1[N+](=O)[O-] (stereo not drawn) | 70.3 ± 19
58 | COc1cccc(OCC(=O)c2ccc(Br)cc2)c1 | 95.9 ± 14
59 | CCN(CC)S(=O)(=O)c1ccc(Cl)c(C(=O)Nc2ccc3nc(C)sc3c2)c1 | 111 ± 58

Row | SMILES | percent growth [%]
60 | Cc1cc(C)c2cc(C(=O)NC3CCCCCCC3)[nH]c2c1 | 97.9 ± 4.1
61 | COc1ccc(-c2cncc3ccc(C(=O)NCCCn4ccnc4)nc23)cc1 | 104 ± 23
62 | Cc1[nH]c2ccccc2c1C(c1cccs1)N1CCN(C)CC1 (stereo not drawn) | 120 ± 50
63 | O=C(Nc1ccc2c(c1)B(O)OC2)c1ccccc1C(F)(F)F | 93.9 ± 12
64 | Nc1ncnc2c1c(Cc1cccc3ccccc13)nn2CC1CCNCC1 | 97.8 ± 6.6
65 | FC(F)(F)c1ccc(N(c2cccnc2)C2CCN(c3ccc(C(F)(F)F)cn3)CC2)cc1 | 93.4 ± 13
66 | CCCn1c(CNc2ccccc2O)nc2ccccc21 | 77.9 ± 15
67 | Cc1ccc(NC(=O)c2nc[nH]c2C(=O)Nc2nc3ccccc3[nH]2)c(C)c1 | 75.1 ± 5.9
68 | CC[C@@H]([C@H](C)O)n1ncn(-c2ccc(N3CCN(c4ccc(OC[C@@H]5CO[C@@](Cn6cncn6)(c6ccc(F)cc6F)C5)cc4)CC3)cc2)c1=O | 106 ± 34
69 | COc1ccc(C2CC(c3cccs3)=NN2C(=O)c2ccco2)cc1OC (stereo not drawn) | 95.4 ± 24
70 | COc1cc(NC(C)CCCN)c2ncccc2c1 (stereo not drawn) | 74.7 ± 18
71 | Cc1[nH]c2cc(F)cc(F)c2c(=O)c1-c1ccc(Oc2ccc(OC(F)(F)F)cc2)cc1 | 96.1 ± 26
72 | CCCCS(=O)(=O)Nc1ccc2cnn(C)c2c1 | 101 ± 14
73 | Cc1ccc2nc(Cl)c(CNCc3cccs3)cc2c1 | 79.9 ± 9.3
74 | Cc1cnc(N2CCN[C@@H](Cc3ccccc3)C2)nc1Oc1ccc(-n2ccnc2)cc1 | 81.2 ± 6.6
75 | c1ccc(Oc2ccc(-c3cc(C4CCOCC4)[nH]n3)cc2)cc1 | 63.2 ± 21
76 | CC(C)c1ncc(-c2ccncc2)c([C@H]2CC[C@H](CNC(=O)c3cccnc3)CC2)n1 | 87.5 ± 26
77 | CCOC(=O)c1c(NC(=O)c2c(F)c(F)c(F)c(F)c2F)sc(C(N)=O)c1C | 87.4 ± 31
78 | CC(C(=O)N1CCCC1)N1CCN(S(=O)(=O)c2ccc(C(C)(C)C)cc2)CC1 (stereo not drawn) | 96.2 ± 3
